# Data from the RNAGym collection of RNA variant scans (doi:10.1126/science.aae0568).
# Variants at the background level are over-represented here.
# B1: tRNA (parent)
# chain: GUUCCGUUGGCGUAAUGGUAACGCGUCUCCCUCCUAAGGAGAAGACUGCGGGUUCGAGUCCCGUACGGAACG
# Variants of: B1
# Assay: yeast fitness relative to wild type (ratio to wild type); higher = fitter; tRNA-Arg(CCU), competitive growth, 37 C, YPD
# In short: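 A pool of Saccharomyces cerevisiae strains, each with a tRNA-Arg(CCU) gene variant at the native genomic locus, was competed in YPD at 37°C for 24 hours across six parallel replicates. The variants had been chemically synthesised at a 3% per-site mutation rate over 69 sites, and gene amplicons before and after competition were read by 100-nucleotide paired-end sequencing. Darwinian fitness relative to wild type rested on changes in genotype frequencies. Genotypes required ≥ 100 starting reads, and estimates < 0.5 were set to 0.5.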
row,Variant,yeast fitness
1,GUUCCGAUGGCGUAAUGGUCGCACGUCUCCCUCCUAAGGAGAAGACUGCGGAUUCGAGUCCCGUACGGAACG [U7A A20C A21G G23A G52A],≤ 0.5
2,GUUCCGAAGCCGUAAUGGUAACGCGUCUCCCUCCUAAGGAGAAGACUGCGGGUUCGAGUCCCGUACGGAACG [U7A U8A G10C],≤ 0.5
3,GUUCCGAUGGCGUAAUGGUACCGCGUCUCCGUCCUAAGGAGAAGACUGCGGGUUCGAGUCCUGUACGGGACG [U7A A21C C31G C62U A69G],≤ 0.5
4,GUUCCGUUGGCAUAAUGGUAACGCAUCUCCCUCCUAAGGAGAAGACUGCGCGUUCGAGUCCCGUACGGAACG [G12A G25A G51C],≤ 0.5
5,GUUCCGUUGGCGUAAUGGUAACGUGUCUCCCUCCUAAGGAGAGGACUGCGGGUUCGAGUACCGUACGGAACG [C24U A43G C60A],≤ 0.5
6,GUUCCGGUGGCGAAAUGGUAACGCGUCUCCCUCCUAAGGAGAAGACUGCGGGUUCGACUCCCCUACGGAACG [U7G U13A G58C G63C],≤ 0.5
7,GUUCCGUUGGCGUAAUGGUAACGCGUCUCCCUCCUAAGGAGAAGACUACGGGUUCGAGUGCAGUGCGGAACG [G48A C60G C62A A65G],≤ 0.5
8,GUUCCGUUGGCGUAAUGGUCACGAGUCUCCCUCCUAAGGAGAAGACUGCGGGUUCAAGUCCUGUAUGGACCG [A20C C24A G56A C62U C66U A70C],≤ 0.5
9,GUUCCGUUGGCGUGAUGGUAGCGGGUCGCCCUCCUAAGGAGAAGACUGCGGGUUCGAGUCCCGUACGGAACG [A14G A21G C24G U28G],≤ 0.5
10,GUACCGUUGGCGUAAUGGUAACGCGUCUCCCGCCUAAGGAGAAGACUGCGGGUUCGAGUCCCCUAUGGAACG [U3A U32G G63C C66U],≤ 0.5
11,GUUCCGUUGGCGUAAUGGUAACGCGUCUCGCUCCUACGGAGAAGGCUGCGGGUUCGAGUCCCGUACGGAACG [C30G A37C A45G],0.633
12,GUUCCGUUGACGUAAAGGUAACGCGUCUCCCUCCUAAGGAGAAGACUGCGGGUUCGAGCCCCGUACGGAACG [G10A U16A U59C],≤ 0.5
13,GUUCCGUUGGCGCAAUGGUAACGCGUCUCCCUCCUAAGGAGAAGAUUACGGGUUCGAGUCCCGUAUGGAACG [U13C C46U G48A C66U],≤ 0.5
14,GUUGCGUUGGCGUAAUGGUAACGCGUCUCCCUACUAAGGUGAAGACUGCGGGUUCGAGUCCCGUACGAAACG [C4G C33A A40U G68A],≤ 0.5
15,GUUCCGUUGGCGUAAUGGUAACGCGUCUACCUCCUAAGGAGAACACUGCGGGUUCGAGUCCCGUACGGUACG [C29A G44C A69U],≤ 0.5
16,GUUCCGUUGGUGUAAAGGUAACGCGUCUCCCUCCUAAGGAGAAGACUGCGGGUCCGAGUCCCGUACGGAACG [C11U U16A U54C],≤ 0.5
17,GUUCGGUUGGCGUAAUGGUAACGCGUCUCCCUCCUCAGGAGAUGACUGCGGGUUCGAGUCCCGUACGGAACG [C5G A36C A43U],≤ 0.5
18,GUUCCGUUGGCGAAAUGGUAACGCGGAUCCCUCCUAAGCAGGAGACUGCGGGUUCGAGUCCCGUACGGAACG [U13A U26G C27A G39C A42G],≤ 0.5
19,GUUCCGUUGGCGUCAUGGUAACGCGUCUCAGUCCUAAGGAGAAGACUGCGGGUUCGAGUCCCGAACGGAACG [A14C C30A C31G U64A],0.584

row,Variant,yeast fitness
1,GUUCCCUUGCCGUAAUGGUAACGCGUCUCCCUCCUAAGGAGAAGACUCCGGGUUCGAGUCCGGUUCGGAACG [G6C G10C G48C C62G A65U],≤ 0.5
2,GUUCAGUUGGCGUACUGGUAACGCGUCUACCCCCUAAGGAGCAGGCUGCGGGUUCGAGUCCCGUACGGAACG [C5A A15C C29A U32C A42C A45G],≤ 0.5
3,GUUCUGUUGGCGUAAUGGUAACGCGUCUCCCUCAUAAGGAGAAGACUGCGGGAUCGAGUCCCGGAUGGAACG [C5U C34A U53A U64G C66U],≤ 0.5
4,GUUCCGUUGGCGUAAUGGUAACGCGUCACCCUCCUAAGGACUAGACUGCGGAUUCGAGUCCCGUACGGAACG [U28A G41C A42U G52A],≤ 0.5
5,GUUUCGUUGGCGUAAUGGUAAUGCGUCUCCCUCCUAAGGAGAAGACGGCGGGUUCGAGUCCCGUACGGAACG [C4U C22U U47G],≤ 0.5
6,GUUGCGUUGGCCUAAUGGUAACGCGUCUCCCUCCUAAGGAGAAGAUUGCGGGUUCGAGUCCCGUACGGAACG [C4G G12C C46U],≤ 0.5
7,GUUCCGUUGGCGUAAUGCUAACGCGUCUCCCUUCUAAGGAGAAGACUGCGGGUUCGAGUCCCGUACGGUACG [G18C C33U A69U],≤ 0.5
8,GUUCCGUUGGCGUAAUGGUAAAACGUCUCCCUCCUAGGGAGAAGACUGCGGGUUCGAGUCCCGUACGGAACG [C22A G23A A37G],≤ 0.5
9,GUUUCGUUGGCGUAAUGGUAACGCGUCUCCCUCCUAAGGAGAAGACUGCGGGUUUGAGUCCCGUGCGGAACG [C4U C55U A65G],0.554
10,GUUCCGUUGGCGUAAUGGUAACGCGUCUCCCUCCUAAGGAGAAGACUGCCGGUACGAGUCCCGUACGGAACG [G50C U54A],0.524
11,GUUCCGUUGGCGUAAUGGUCACGCGUCUCCCUCCUAAAGAGAAGACUGAGGGUUCGACUCCCGUACGGAACG [A20C G38A C49A G58C],≤ 0.5
12,GUUCCGUUGGCGUACUGGUAACGCGUCUCCCUCCUAAGGAGAAGACUGCGGCUUCGAGUCCCGUACGGAACG [A15C G52C],0.575
13,GUUCGGUUGGCGUAAUGGUAACGCGUAUCCCUCCUAAGGAGAAGACUGCGGGUUCGACUCCCGUACGGAACG [C5G C27A G58C],≤ 0.5
14,GUACCGUUGGCGUAAUGGUAGCGCGUCUCCCUCCAAAGGAGAAGACUGCGGGUUCCAGUCCUGUACGGAACG [U3A A21G U35A G56C C62U],≤ 0.5
15,GUUCCGUUGCUGUAAUGGUAACGCGUCUCUCUCCUAAGGAGAAGACUGCGGGUUCGAGUCCCGUACGGAACG [G10C C11U C30U],≤ 0.5
16,GGUUCGUUGGCGUAAUGGUAACGCGUCUCCCUCCUAAGGAGAAGACUGCGGGUUCGCGUCCCGUACGGAACG [U2G C4U A57C],≤ 0.5
17,GAUCCGUUAGCGUAAUGGUAACGCGUCUCCCUCCUAGGGAGAAGACUGCGGGUUAGUGUCCCGUACGGAACG [U2A G9A A37G C55A A57U],≤ 0.5
18,GUUCCGUCGGCAUAAUGGUAACGCGUCUCCCUCCUAAGGAGAAGACUGGGGGUUCGAGUUGCGUACAGAACG [U8C G12A C49G C60U C61G G67A],≤ 0.5
19,GUUCCGUUGGCGUAAUGGUAACGCGUCUCUCUCAUAAGGAGAAGACUGCGGGUACGAGUCCCGUACGGAACG [C30U C34A U54A],≤ 0.5
